Experimental findings from publication PMC11199146 are described below.

Sequences of proteins named here, by UniProt entry; tags and fusion partners are left off.
UniProt Q08857: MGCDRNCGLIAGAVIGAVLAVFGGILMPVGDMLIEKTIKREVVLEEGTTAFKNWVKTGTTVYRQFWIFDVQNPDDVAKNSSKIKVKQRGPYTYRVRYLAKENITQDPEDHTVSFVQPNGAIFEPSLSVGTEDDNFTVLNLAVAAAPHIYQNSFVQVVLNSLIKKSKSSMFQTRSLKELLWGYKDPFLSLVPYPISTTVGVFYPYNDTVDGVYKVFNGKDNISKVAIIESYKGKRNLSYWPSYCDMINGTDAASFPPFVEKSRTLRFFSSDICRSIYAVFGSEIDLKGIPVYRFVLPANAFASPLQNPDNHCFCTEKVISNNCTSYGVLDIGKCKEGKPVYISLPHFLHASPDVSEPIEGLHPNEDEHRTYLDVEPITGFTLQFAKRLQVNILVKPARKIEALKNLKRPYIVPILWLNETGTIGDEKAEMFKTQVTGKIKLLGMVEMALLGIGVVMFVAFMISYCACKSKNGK
UniProt P39688: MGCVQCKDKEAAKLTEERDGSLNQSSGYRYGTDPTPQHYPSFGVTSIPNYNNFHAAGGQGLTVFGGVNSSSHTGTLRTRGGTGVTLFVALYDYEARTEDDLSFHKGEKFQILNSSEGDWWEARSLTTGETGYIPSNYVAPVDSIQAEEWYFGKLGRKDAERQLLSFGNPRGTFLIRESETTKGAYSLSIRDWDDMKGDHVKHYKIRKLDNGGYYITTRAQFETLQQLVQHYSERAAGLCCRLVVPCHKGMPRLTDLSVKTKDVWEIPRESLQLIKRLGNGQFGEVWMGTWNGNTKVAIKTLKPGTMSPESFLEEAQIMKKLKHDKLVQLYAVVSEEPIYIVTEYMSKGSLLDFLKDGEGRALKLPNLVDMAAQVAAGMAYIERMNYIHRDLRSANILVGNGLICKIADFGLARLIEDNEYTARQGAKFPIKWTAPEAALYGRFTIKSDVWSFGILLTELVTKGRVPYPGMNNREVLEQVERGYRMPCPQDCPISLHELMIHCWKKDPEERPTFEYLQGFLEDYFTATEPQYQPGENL
UniProt Q8VDZ4: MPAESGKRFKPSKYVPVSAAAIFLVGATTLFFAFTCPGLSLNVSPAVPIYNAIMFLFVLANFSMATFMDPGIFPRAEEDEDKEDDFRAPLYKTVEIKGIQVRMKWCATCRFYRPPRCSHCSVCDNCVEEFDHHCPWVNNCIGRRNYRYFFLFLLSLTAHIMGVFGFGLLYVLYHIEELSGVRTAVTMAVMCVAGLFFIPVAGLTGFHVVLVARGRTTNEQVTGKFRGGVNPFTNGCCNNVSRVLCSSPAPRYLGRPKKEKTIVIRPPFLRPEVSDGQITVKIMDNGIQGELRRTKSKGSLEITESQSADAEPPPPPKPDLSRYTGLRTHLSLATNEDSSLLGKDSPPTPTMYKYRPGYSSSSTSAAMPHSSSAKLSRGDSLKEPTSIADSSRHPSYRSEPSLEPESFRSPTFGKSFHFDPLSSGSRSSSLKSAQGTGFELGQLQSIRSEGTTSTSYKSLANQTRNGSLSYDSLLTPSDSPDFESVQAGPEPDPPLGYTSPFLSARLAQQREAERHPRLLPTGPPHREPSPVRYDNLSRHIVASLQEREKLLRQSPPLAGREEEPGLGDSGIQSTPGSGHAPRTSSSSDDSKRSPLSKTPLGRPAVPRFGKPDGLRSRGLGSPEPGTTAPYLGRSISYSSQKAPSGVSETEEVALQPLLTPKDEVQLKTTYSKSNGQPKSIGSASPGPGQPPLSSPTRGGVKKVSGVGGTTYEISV
UniProt P25911: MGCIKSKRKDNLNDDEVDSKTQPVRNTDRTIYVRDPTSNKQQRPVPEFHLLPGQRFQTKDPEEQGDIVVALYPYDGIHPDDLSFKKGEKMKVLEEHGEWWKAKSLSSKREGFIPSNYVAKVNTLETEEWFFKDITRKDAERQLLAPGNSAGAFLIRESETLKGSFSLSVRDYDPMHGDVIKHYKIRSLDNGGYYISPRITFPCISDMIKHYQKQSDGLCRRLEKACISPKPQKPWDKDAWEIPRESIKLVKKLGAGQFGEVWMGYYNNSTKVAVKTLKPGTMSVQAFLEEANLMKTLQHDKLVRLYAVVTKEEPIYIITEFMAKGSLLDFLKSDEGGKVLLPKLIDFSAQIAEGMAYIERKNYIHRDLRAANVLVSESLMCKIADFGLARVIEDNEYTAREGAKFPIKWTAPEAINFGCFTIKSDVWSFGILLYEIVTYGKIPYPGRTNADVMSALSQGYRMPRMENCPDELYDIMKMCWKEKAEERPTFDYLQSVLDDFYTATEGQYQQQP

Test [1] deals with Cluster of differentiation (CD36), membrane-localized fatty acid translocase (mouse (endogenous in primary neonatal mouse cardiomyocytes)) (UniProt Q08857). Nature of the test: co-IP; endogenous proteins; NP-40 lysates of primary NMCMs treated with PA + OA for 24 h, immunoprecipitated with an antibody and Protein A/G magnetic beads, then western blot; cells from TGR5 fl/fl or TGR5 deltaCM mice, or with or without INT-777; CD36 immunoprecipitation for Fyn and Lyn, precipitating antibody not told for DHHC4 and DHHC5.

The target is the same in test [2]. The test is described as above. This is another data set of the same source.

Where two headings read alike, the source gives them in different places. Results are given in words; binding and its absence hold for the method and conditions named. Binding seen in cells or lysates may run through a third protein. Some results given as binding are weak or reduced against the parent protein; the word gives no strength.

Consider “Src family kinase Fyn (from UniProt P39688 1-537) (enzyme)”, for which, in test [1], the binding result is listed as “binds”. With “palmitoyl acyltransferase DHHC5 (from UniProt Q8VDZ4 1-715) (enzyme)”, in test [1], the binding result is on record as “binds”. Turning to “Src family kinase Lyn (from UniProt P25911 1-512) (enzyme)”, the binding entry in test [1] is “binds”.

B1: palmitoyl acyltransferase DHHC4 (enzyme, UniProt Q9D6H5 1-343)
chain: MDFLVLFLFYLAFLLICVVLICIFTKSQRLKAVVLGGAQVCSRVIPQCLQRAVQTLLHQLFHTRHPTFIVLHLLLQGLVYAEYTCEVFGYCRELEFSLPYLLLPYVLLSVNLVFFTLTCAANPGTITKANESFLLQVYKFDDVMFPKNSRCPTCDLRKPARSKHCRLCDRCVHRFDHHCVWVNNCIGAWNTRYFLIYLLTLTASAATIATVTAAFLLRLVTVSDLYQETYLDDVGHFQAVDTVFLIQHLFLAFPRIVFLLGFVIVLSMLLAGYLCFALYLAATNQTTNEWYKGDWAWCQRWPLVAWSPSAEPRIHQNIHSHGFRSNLREIFLPATPSYKKKEK
As to B1, the binding entry in test [2] was “binds”.
